Laboratory results from publication PMC5641590, “An Automated Platform for Assessment of Congenital and Drug-Induced Arrhythmia with hiPSC-Derived Cardiomyocytes” (Frontiers in Physiology, 2017).

System: normal individual (iCell) hiPSC-CMs
Test: Optical recording of VF2.1.Cl AP kinetics in normal individual (iCell) hiPSC-CMs, 100 Hz, IC200 KIC
Type: cell-based
Details: Homo sapiens, 5 min, acute treatment 5 min, n = 3 wells per dose, read-out: EC50 (dose response curve for APD75)

CC(C)NCC(O)COc1cccc2ccccc12 (stereo not shown) [propranolol]
EC50: 51.7 µM
